Laboratory results reported in PubChem BioAssay AID1671190 (National Center for Advancing Translational Sciences (NCATS), 2021).
Hit rate of the full screen: of about 580,000 compounds, about 6,100 (1.1%) were called active. The inconclusive results got no clear call from the source; some entries with a clear call stand among them for comparison. Calls follow the shape of the dose curve; as a rule, active = well fitted inhibition curve with a large enough effect; inconclusive = small, poorly fitted or top-dose-only effect, or another doubt; inactive = no such curve, though single readings can be large or run the other way. Potencies beside an inconclusive call are fits to weak or partial responses and may not hold up.

By UniProt entry, the sequences of proteins in these tests, tags left out. Where a name states a change or a piece, a line headed by the entry shows the natural chain unless it says otherwise.
UniProt P18054: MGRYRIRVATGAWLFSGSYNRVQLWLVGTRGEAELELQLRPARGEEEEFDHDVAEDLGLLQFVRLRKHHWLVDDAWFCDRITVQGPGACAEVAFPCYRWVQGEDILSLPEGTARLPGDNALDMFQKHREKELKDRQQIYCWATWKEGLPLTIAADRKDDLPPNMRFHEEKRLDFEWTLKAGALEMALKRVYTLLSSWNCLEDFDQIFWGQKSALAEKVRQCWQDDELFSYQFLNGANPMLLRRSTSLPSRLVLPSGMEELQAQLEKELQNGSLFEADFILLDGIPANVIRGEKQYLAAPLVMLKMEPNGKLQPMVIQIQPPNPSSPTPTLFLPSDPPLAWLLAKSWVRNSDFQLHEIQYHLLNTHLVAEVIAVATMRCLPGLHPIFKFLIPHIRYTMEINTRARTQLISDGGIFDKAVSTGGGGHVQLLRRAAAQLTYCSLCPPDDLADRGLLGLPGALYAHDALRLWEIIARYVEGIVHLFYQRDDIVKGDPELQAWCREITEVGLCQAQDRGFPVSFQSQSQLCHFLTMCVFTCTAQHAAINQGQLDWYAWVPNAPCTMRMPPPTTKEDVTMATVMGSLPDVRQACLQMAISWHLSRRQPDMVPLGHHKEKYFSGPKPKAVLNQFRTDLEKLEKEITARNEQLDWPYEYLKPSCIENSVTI

biological target: Polyunsaturated fatty acid lipoxygenase ALOX12 (Homo sapiens) (UniProt P18054); assay: Primary qHTS assay for inhibitors of human arachidonate 12S-lipoxygenase (ALOX12): Round 2; conditions: purified 12hLO, xylenol orange hydroperoxide absorbance; activity change, negative = inhibition: at 108 µM (top of the series) unless noted
Method in brief: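 Purified human 12hLO (150 nM final) in 25 mM Hepes, 0.01% Triton X-100, pH 7.0 was preincubated 15 min at room temperature with compound. Then 40 uM arachidonic acid was added, 30 min. Hydroperoxide was read by Fe-XO absorbance ratio 573/405 nm.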
% is scaled to controls: 0 for no effect and ±100 for the full control effect; potency is read from the fitted curve at half-maximal effect.

Q: How did the Potency turn out when CC(C)N(O)C(=O)NC(C)(C)C was run?
A: Its Potency is inconclusive: 89.1 µM [inhibitor, single point].

Q: Which “activity change, negative = inhibition” value does the source give for Cc1cc(C(=O)Nc2ccc(N3CCCC3)c(Cl)c2)ccc1[N+](=O)[O-] here?
A: Its value is inactive: -26.5%.

Q: For Cc1cc(C)nc(NC(c2cccs2)c2c(NC(=O)c3ccco3)sc(C)c2C)n1 (stereo unspecified), which Potency is on record?
A: The Potency was inconclusive: 89.1 µM [inhibitor, partial curve, poor fit].

Q: How did the Potency turn out when Cc1ccc(OC(=O)C23CC4CC(CC(C4)C2)C3)c(C)n1 was run?
A: Its Potency is inconclusive: 112 µM [inhibitor, single point].

Q: For CCOCCOC(=O)CCSc1n[nH]c(=O)[nH]c1=O, which Potency is on record?
A: The Potency was inconclusive: 35.5 µM [inhibitor, partial curve, poor fit].

Q: Which Potency does the source give for Cc1cc(C)c(NC(=O)C2CCN(c3cnc4ccccc4n3)CC2)c(C)c1 here?
A: Its Potency is inconclusive: 89.1 µM [inhibitor, partial curve, poor fit].

Q: How did the “activity change, negative = inhibition” value turn out when Cc1ccc(NC(=O)Cc2nnc(SCC(=O)NC34CC5CC(CC(C5)C3)C4)n2C)c(C)c1 was run?
A: The value was inactive: -13.1%.

Q: Which Potency does the source give for Cc1ccc(S(=O)(=O)N[C@H](C)c2c(-c3ccc(F)cc3)noc2C(=O)O)cc1 here?
A: The Potency was inconclusive: 31.6 µM [inhibitor, single point].

Q: For CC(=O)c1ccc(NC(=S)NC(=O)c2c(Cl)c(C)nn2C)cc1, which Potency is on record?
A: The Potency was inconclusive: 100 µM [inhibitor, single point].

Q: Which Potency does the source give for N#CC1=C(N)SC(N)=C(C#N)C1c1cccc(O)c1 here?
A: Its Potency is active: 31.6 µM.

Q: With COC(=O)[C@H](C(C)C)N1CCc2nnn(CC3CCCCC3)c2-c2ccccc2S1(=O)=O as the compound, how does the Potency read?
A: The Potency was inconclusive: 31.6 µM [inhibitor, single point].

Q: How did the Potency turn out when Cc1cccc(-n2c(=O)c3c(cc(C)n3C)n(CC(=O)Nc3ccccc3F)c2=O)c1 was run?
A: The Potency was inconclusive: 44.7 µM [inhibitor, partial curve].

Q: For COc1ccc(C2=NOC(COC(=O)c3ccc4ccccc4n3)C2)cc1 (stereo unspecified), which Potency is on record?
A: The Potency was inconclusive: 10 µM [inhibitor, full curve, poor fit].

Q: Which Potency does the source give for O=C(CSc1ncc(CO)n1Cc1ccc(F)cc1)NCc1ccc2c(c1)OCO2 here?
A: The Potency was inconclusive: 20 µM [inhibitor, partial curve, poor fit].

Q: How did the Potency turn out when CCOc1ccc(C(=O)NC(=S)Nc2cccc(NC(=O)c3ccco3)c2)cc1[N+](=O)[O-] was run?
A: Its Potency is inconclusive: 17.8 µM [inhibitor, partial curve, poor fit].

Q: With CCCCC(=O)NC1C2CC3CC(C2)CC1C3 (stereo unspecified) as the compound, how does the “activity change, negative = inhibition” value read?
A: Its value is inactive: 8.11%.

Q: With Cc1ccnc(NC(=O)C2CC(=O)N(c3n[nH]c4cc(Br)ccc34)C2)c1 (stereo unspecified) as the compound, how does the Potency read?
A: Its Potency is inconclusive: 14.1 µM [inhibitor, partial curve, poor fit].

Q: Which “activity change, negative = inhibition” value does the source give for N#CC(C#N)=Cc1ccc(OC(=O)c2ccccn2)cc1 here?
A: The value was inactive: -17.6%.

Q: Which Potency does the source give for O=C(CN1CCCN(S(=O)(=O)c2ccc(Br)cc2)CC1)Nc1cccc(C(F)(F)F)c1 here?
A: The Potency was inconclusive: 15.8 µM [inhibitor, partial curve, poor fit].

Q: How did the Potency turn out when O=C(CSc1nnc(-c2ccccc2F)n1C1CC1)c1cc2ccccc2o1 was run?
A: Its Potency is inconclusive: 28.2 µM [inhibitor, full curve, poor fit].

Q: CC(=O)NC(C)(c1ccccc1)c1nc(-c2ccc(S(C)(=O)=O)cc2)cs1 (stereo unspecified) was tested. Which “activity change, negative = inhibition” value did it give?
A: The value was inactive: 1.46%.

Q: S=C1NNC2(CC3CC2C2CCCC32)NN1 (stereo unspecified) was tested. Which Potency did it give?
A: Its Potency is inconclusive: 56.2 µM [inhibitor, partial curve, poor fit].

Q: For CCCc1cc(-c2n[nH]c(C)c2-c2ccc(C(=O)OCC)o2)c(O)cc1O, which Potency is on record?
A: The Potency was inconclusive: 89.1 µM [inhibitor, single point].

Q: How did the activity change, negative = inhibition turn out when COc1ccc(C2C(C#N)=C(N)Oc3cc(N)ccc32)cc1OC (stereo unspecified) was run?
A: The activity change, negative = inhibition was inconclusive: -36.8% [inhibitor].

Q: Which Potency does the source give for O=[N+]([O-])c1ccc(Cl)c(/C=N/n2c(COc3ccccc3)n[nH]c2=S)c1 here?
A: The Potency was inconclusive: 56.2 µM [inhibitor, partial curve].

Q: With CC(=O)Nc1ccc(C2C(=O)c3ccccc3C2=O)cc1 as the compound, how does the Potency read?
A: Its Potency is inconclusive: 100 µM [inhibitor, partial curve, poor fit].

Q: For CCC/C(=C1/c2ccccc2C(=O)N1c1ccccc1)c1cnc(OC)nc1, which Potency is on record?
A: The Potency was inconclusive: 50.1 µM [inhibitor, partial curve, poor fit].

Q: Which Potency does the source give for COc1cc(C2c3cc4c(cc3OC(NCc3ccccc3)C2C)OCO4)cc(OC)c1OC (stereo unspecified) here?
A: Its Potency is inconclusive: 12.6 µM [inhibitor, full curve, poor fit].

Q: Which Potency does the source give for N#CCN(CC#N)C(=O)c1ccc2c(c1)OCCCO2 here?
A: The Potency was inconclusive: 100 µM [inhibitor, single point].

Q: For O=C(O)CC(NC(=O)c1ccc2c(c1)OCO2)c1cccc([N+](=O)[O-])c1 (stereo unspecified), which Potency is on record?
A: Its Potency is inconclusive: 141 µM [inhibitor, partial curve, poor fit].

Q: For O=C(O)/C=C/C(=O)NCCN1CCOCC1, which “activity change, negative = inhibition” value is on record?
A: The value was inactive: -9.96%.

Q: With COc1ccc(NC(=O)Cn2nnc(C(=O)NCc3ccc4c(c3)OCO4)c2N)cc1 as the compound, how does the Potency read?
A: Its Potency is inconclusive: 112 µM [inhibitor, partial curve, poor fit].

Q: Which “activity change, negative = inhibition” value does the source give for O=C(CSc1ccc(Cl)cc1)Nc1ccccc1 here?
A: Its value is inactive: 5.75%.

Q: How did the Potency turn out when O=C1/C(=C/c2cccs2)SC(=S)N1c1ccccc1 was run?
A: The Potency was inconclusive: 70.8 µM [inhibitor, partial curve, poor fit].

Q: CCn1c(/C=C/c2cn(C)c3ccccc23)nc2ccccc2c1=O was tested. Which “activity change, negative = inhibition” value did it give?
A: The value was inactive: 63.5%.

Q: With COc1cc(NC(=S)Nc2ccc(OC(F)F)cc2)cc(OC)c1 as the compound, how does the Potency read?
A: The Potency was inconclusive: 56.2 µM [inhibitor, partial curve, poor fit].

Q: Nc1ccc([N+](=O)[O-])cc1Br was tested. Which Potency did it give?
A: The Potency was inconclusive: 20 µM [inhibitor, partial curve].

Q: With O=C(Nc1ccon1)Nc1ccc(Cl)cc1Cl as the compound, how does the Potency read?
A: The Potency was inconclusive: 50.1 µM [inhibitor, partial curve, poor fit].

Q: Which Potency does the source give for Cn1c(C(=O)N2CCN(Cc3ccc4c(c3)OCO4)CC2)cc2sccc21 here?
A: The Potency was inconclusive: 15.8 µM [inhibitor, partial curve].

Q: With CN(C(=O)COc1ccc2c(-c3ccccc3)cc(=O)oc2c1)C1(C#N)CCCCC1 as the compound, how does the Potency read?
A: The Potency was inconclusive: 44.7 µM [inhibitor, partial curve, poor fit].

Q: With CC1(Cc2cccc(F)c2)C(=O)Nc2ccc(OC(F)(F)F)cc21 (stereo unspecified) as the compound, how does the Potency read?
A: Its Potency is inconclusive: 126 µM [inhibitor, single point].
